# Primary screen of a compound library

Chains of the proteins cited; added tags and fusions are not shown. Residues count along the entry.
UniProt Q8IDJ8, 1-583: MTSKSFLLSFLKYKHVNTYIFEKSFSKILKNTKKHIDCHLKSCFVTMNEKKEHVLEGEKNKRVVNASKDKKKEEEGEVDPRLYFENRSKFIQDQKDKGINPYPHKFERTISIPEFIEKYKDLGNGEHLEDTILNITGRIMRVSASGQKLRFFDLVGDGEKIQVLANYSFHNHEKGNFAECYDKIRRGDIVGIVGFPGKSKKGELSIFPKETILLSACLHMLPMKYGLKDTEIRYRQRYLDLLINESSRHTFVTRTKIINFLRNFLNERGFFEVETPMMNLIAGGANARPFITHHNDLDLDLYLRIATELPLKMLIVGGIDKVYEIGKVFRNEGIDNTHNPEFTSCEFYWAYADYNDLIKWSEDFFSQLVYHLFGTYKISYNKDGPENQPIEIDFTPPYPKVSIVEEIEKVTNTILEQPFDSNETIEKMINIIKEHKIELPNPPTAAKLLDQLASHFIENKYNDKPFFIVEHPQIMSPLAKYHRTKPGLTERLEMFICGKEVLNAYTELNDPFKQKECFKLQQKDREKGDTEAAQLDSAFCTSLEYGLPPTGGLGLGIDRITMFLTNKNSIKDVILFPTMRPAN

Results are given as percent effect.
The record does not define 0% and 100%; most values in the screen are far below 50% and negative numbers occur (in some assays of this library far below -100).
Compounds were drawn at random from those tested, without regard to their results.
A dash means the value is not listed here; it may have been measured.

T. brucei: 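Whole-parasite assay of Trypanosoma brucei over 72 hours; the read-out is not stated. Tested at 30 µM. The record gives no direction; compounds that gave an IC50 in retests scored well above the rest, so higher reads as stronger inhibition. Values scatter widely below zero; nearly all retest evidence comes from the higher of the two concentrations used. About 64,000 compounds were tested under these conditions; 1.5% (about 940) showed 50% or more at least once.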
PfKRS1: 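Enzyme assay of the cytosolic lysyl-tRNA synthetase in 384-well plates, read by luminescence. Target: Lysine-tRNA ligase, Plasmodium falciparum 3D7 (UniProt Q8IDJ8). Compounds at 30 µM. Direction is inferred from only a few compounds that gave an IC50; most scored high, so higher reads as stronger inhibition. About 69,000 compounds were tested under these conditions; 0.071% (about 49) showed 50% or more at least once.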

| SMILES | T. brucei | PfKRS1 |
|---|---|---|
| `Cc1cc(CN2CCC(CNS(=O)(=O)c3ccc(Br)s3)CC2)c(C)o1` | 55.92 | 5.87 |
| `OC1CCCOC12CCN(c1ncccn1)CC2` (stereo not drawn) | -12.04 | 12.36 |
| `COCC(=O)N1CCC(c2cc(C(F)(F)F)n3ccnc3n2)CC1` | 7.087 | 4 |
| `CCS(=O)(=O)N1C[C@@H](O)[C@H](N2CCc3ccccc3C2)C1` | -10.76 | 2.575 |
| `Cc1c(O)oc(-c2ccc(Br)cc2)nc1=O` | -7.503 | 1.112 |
| `CS(=O)(=O)NCCN1CCCC1c1noc(C2CC2)n1` (stereo not drawn) | - | -1.066 |
| `COC(C)(C)CC(C)NC(=O)Nc1ccccn1` (stereo not drawn) | -22.85 | 2.476 |
| `CCc1nc(CN(C)C2CCN(CCC(=O)N3CCCCC3)C2)no1` (stereo not drawn) | -17.4 | 0.464 |
| `O=C(O)C(F)(F)F.O=C(O)C(F)(F)F.[H][C@]12CN(Cc3ccncc3)C(=O)[C@@]1([H])CN(C1CCOCC1)C2` | -116.8 | - |
| `NC(=O)CCCNC(=O)c1cc(Br)c2c(c1)OCCO2` | -22.7 | 1.911 |
| `c1ccc(Cn2cc(CNCC3CCCN3c3cccnn3)cn2)cc1` (stereo not drawn) | -7.309 | 3.95 |
| `CC(=O)c1cn(CCC(=O)NCCCC(=O)O)c2ccccc12` | 0.2176 | 1.517 |
| `COc1cc(CNc2nc3c(c(=O)[nH]2)CCNC3)cc(OC)c1OC` | -27.15 | -1.506 |
| `O=C(NCc1cncc2c1CCN(Cc1ccoc1)C2)C1CC1` | - | 10.67 |
| `Cc1cc(C)c(CNC(=O)N(C)Cc2ccc3c(c2)OCO3)c(=O)[nH]1` | -3.342 | -0.2778 |
| `Cc1cc(CNc2ccc3nc(C)sc3c2)no1` | -75.29 | 10.57 |
| `Cc1nc(-c2cccc(C(=O)O)c2)cc(C2CCN(C(C)C)C2)n1` (stereo not drawn) | 31.46 | 5.17 |
| `CN1CCCC(C(=O)N2CCC(Oc3ccccn3)CC2)C1` (stereo not drawn) | 15.45 | 1.415 |
| `Cc1cccc(N2CCC3(CCCN3Cc3cnn(C)c3C)CC2)n1` | -60.71 | 1.473 |
| `CCCC(=O)N1CCC([C@@H]2C[C@H](C(F)(F)F)n3nc(C)cc3N2)CC1` | -25.13 | 0.7143 |
| `CC(C)Cc1nc(NC(=O)c2cc(-c3cccnc3)n[nH]2)n[nH]1` | -4.384 | 0.3154 |
| `O=C(O)C(F)(F)F.O=C(O)C(F)(F)F.[H][C@@]12COC[C@]1(COc1cccnc1)CN(Cc1ccsc1)C2` | -24.02 | - |
| `Cc1cnccc1N1CCN(C[C@]2(O)CCCN3CCCC[C@@H]32)CC1` | - | 2.831 |
| `Fc1cnc(NCC2Cn3nnc(-c4ccccc4)c3CO2)nc1` (stereo not drawn) | -7.085 | -3.718 |
| `CCOc1cc(Cl)c(CN2CCC3(CCCNC3=O)C2)cc1OC` (stereo not drawn) | -16.79 | 3.05 |
| `CCN1Cc2cc3c(cc2NCCC1=O)OCO3` | -28.51 | 0.8979 |
| `CCCc1cc(CN(C)C2CCSCC2)n[nH]1` | -10 | 0.1767 |
| `c1ccc(CCN2CCN(c3ccc4nncn4n3)CC2)nc1` | 14.18 | 3.397 |
| `CCC1COCCN1C(=O)CNC(=O)c1ccc2c(c1)CCC2` (stereo not drawn) | -33.11 | -0.3412 |
| `O=C1N(c2ccsc2)CCC12CCCN(Cc1cccnc1)C2` (stereo not drawn) | - | 0.848 |
| `O=C(O)C(F)(F)F.O=C(O)C(F)(F)F.[H][C@@]12CCN(CC3CCOCC3)[C@@]1([H])CCN2Cc1c(C)noc1C` | -38.91 | - |
| `COc1ccc(CC(=O)N2CC[C@@H]3[C@H](CC2)N(C)CCS3(=O)=O)cc1` | - | 4.083 |
| `O=C(NCC(F)(F)F)C1CN(C(=O)c2cnccn2)C1` | 14.89 | 8.794 |
| `O=C(NCCS(=O)(=O)N1CCN(c2ncccn2)CC1)c1ccccc1` | 3.163 | 4.54 |
| `CC(=O)Nc1nc(C(=O)N2CCCC2c2ccc(Br)cc2)cs1` (stereo not drawn) | 18.21 | 1.912 |
| `CC(=O)N1CCCC(C(=O)NCc2noc(Cc3ccccc3)n2)C1` (stereo not drawn) | -49.64 | -0.5333 |
| `CN1CCCC1CCn1ccnc1-c1nc2ccccc2[nH]1` (stereo not drawn) | 5.541 | 2.2 |
| `C=Cc1ccc(CN2CCCC3(CNC(=O)c4ccccc4O3)C2)cc1` (stereo not drawn) | 79.56 | 0.7291 |
| `CN1CCOC(C(=O)Nc2nc(-c3ccccc3F)n[nH]2)C1` (stereo not drawn) | 0.02614 | 4.858 |
| `O=C(O)C(F)(F)F.[H][C@@]12CCN(Cc3cccs3)C[C@]1([H])O[C@H](C(=O)NC1CCC1)C2` | 2.151 | - |
| `CCN1CCN(C2CCN(Cc3nc4ccccc4o3)CC2)C1=O` | 5.869 | 6.265 |
| `CN(C)S(=O)(=O)N1CCCC(c2cccc(Cc3ccccc3)n2)C1` (stereo not drawn) | -81.93 | -4.161 |
| `CN(CCOc1cccc(CNC(=O)C2CC2)c1)C1CCOCC1` | -2.276 | -5.134 |
| `CCc1oc(C(=O)NCCc2nc(C(=O)O)cs2)cc1CN1CCCC1` | -1.552 | -1.143 |
| `Cc1cccnc1CN1CCN(CC(=O)N(C)C)[C@@H]2CS(=O)(=O)C[C@@H]21` | - | 4.399 |
| `COc1ccc(C2=CCN(C(=O)C3CCCN(C(C)=O)C3)CC2)cc1` (stereo not drawn) | -8.53 | 0.1958 |
| `CC(Oc1ccc(OCc2ncc(C(C)C)o2)cc1)C(N)=O` (stereo not drawn) | -52.55 | 2.579 |
| `[H][C@]12CC[C@]([H])(CN(C(=O)N(C)C)C1)N(C(=O)Cn1ccnc1CC)C2` | -18.54 | - |
| `COc1cccc(OCC(=O)N(C)c2cccnc2)c1` | -16.24 | -2.874 |
| `Cc1cc(C)n(CC2CN(Cc3cnc(C)s3)CCO2)n1` (stereo not drawn) | - | -1.588 |
| `CS(=O)(=O)N1CCN(C(=O)C2CSCCC(=O)N2)CC1` (stereo not drawn) | -13.02 | 5.301 |
| `[H][C@@]12CS(=O)(=O)C[C@]1([H])N(C(=O)c1snnc1C)CCN2CC1CC1` | -10.43 | - |
| `Cc1ccc(NC2CCN(C(=O)COc3cccc(F)c3)CC2)nn1` | -10.63 | -5.276 |
| `CC(C)Cc1nc(CCn2cncn2)n(-c2ccc3c(c2)OCCO3)n1` | -3.472 | 2.808 |
| `Cc1cc(C)nc(C2CCCN2S(=O)(=O)N2CCOCC2)n1` (stereo not drawn) | -13.13 | 0.05722 |
| `O=C(Cn1c(=O)n(Cc2ccco2)c2ncccc21)NC1CC1` | -11.83 | 3.317 |
| `CCS(=O)(=O)NCCNC(C)(C)c1nc(C)cs1` | -14.64 | 1.481 |
| `CC(=O)c1ccc(S(=O)(=O)N2CCCC2CN2CCCC2)cc1` (stereo not drawn) | -77.07 | -0.202 |
| `COc1c(CNCCNC(=O)c2ccccc2)c(C)nn1C` | - | 1.358 |
| `Cc1cc(CSc2ccccn2)on1` | -5.993 | -1.459 |
| `O=C(N1CCCC(n2cncn2)C1)C1(c2cccc(F)c2)CCC1` (stereo not drawn) | -16.57 | 0.5335 |
| `CC(=O)N1CCN(c2cc(-n3cccc3)ncn2)CC1` | -19.25 | -0.2048 |
| `N#Cc1ccccc1CN1CCC2(CC1)CC(c1ccccc1)C(=O)N2` (stereo not drawn) | - | -5.137 |
| `Cc1cc(C)n(CC2CCCCN2CC(=O)Nc2cccnc2)n1` (stereo not drawn) | 27.63 | -2.069 |
| `Cc1cc(C)c2c(NCC3(O)CCCCC3)ncnc2n1` | -2.327 | 18.18 |
| `COCCC(=O)N1CCC2(CN(Cc3cccc(F)c3)C2)C1` | -14.34 | 1.766 |
| `CC(C)(C)CC(=O)NC(C)(C(N)=O)c1cccc(Cl)c1` (stereo not drawn) | -43.61 | -4.594 |
| `O=C1CCCN1CCCC(=O)N1CCCCC1c1ccc(F)cc1` (stereo not drawn) | -50.57 | 1.324 |
| `COc1ccc(C(=O)N2CCC(Nc3ccc(C)nn3)CC2)cc1` | 2.299 | -0.5987 |
| `COc1cc(F)ccc1N(C)Cc1ccncc1` | -66.27 | 2.064 |
| `O=C(O)C(F)(F)F.c1cncc(C2CC3(CCN(c4cnccn4)CC3)c3ccccc32)c1` (stereo not drawn) | -41.62 | - |
| `CC(C)CC(=O)NCCCn1cncn1` | -9.748 | 5.399 |

The last 9 entries again:

SMILES	T. brucei	PfKRS1
Cc1cc(C)n(CC2CCCCN2CC(=O)Nc2cccnc2)n1 (stereo not drawn)	27.63	-2.069
Cc1cc(C)c2c(NCC3(O)CCCCC3)ncnc2n1	-2.327	18.18
COCCC(=O)N1CCC2(CN(Cc3cccc(F)c3)C2)C1	-14.34	1.766
CC(C)(C)CC(=O)NC(C)(C(N)=O)c1cccc(Cl)c1 (stereo not drawn)	-43.61	-4.594
O=C1CCCN1CCCC(=O)N1CCCCC1c1ccc(F)cc1 (stereo not drawn)	-50.57	1.324
COc1ccc(C(=O)N2CCC(Nc3ccc(C)nn3)CC2)cc1	2.299	-0.5987
COc1cc(F)ccc1N(C)Cc1ccncc1	-66.27	2.064
O=C(O)C(F)(F)F.c1cncc(C2CC3(CCN(c4cnccn4)CC3)c3ccccc32)c1 (stereo not drawn)	-41.62	-
CC(C)CC(=O)NCCCn1cncn1	-9.748	5.399

From ChEMBL document CHEMBL3988442, “University of Dundee, Small-Polar-MMV Screening Library” (2021).